Results taken from PMC6251927.
Results are given in words; binding and its absence hold for the method and conditions named. In cells and extracts the contact can be indirect. A yes stands for co-enrichment or nearness to the bait. Other partners may have been found. For some assays here: Where a sequence is shown, tags or fusion partners need not be part of it.

Amino acid sequences for entries named in this document (tags omitted). A change or cut given only in a name is not applied to a line headed by its entry.
UniProt Q9NFU0: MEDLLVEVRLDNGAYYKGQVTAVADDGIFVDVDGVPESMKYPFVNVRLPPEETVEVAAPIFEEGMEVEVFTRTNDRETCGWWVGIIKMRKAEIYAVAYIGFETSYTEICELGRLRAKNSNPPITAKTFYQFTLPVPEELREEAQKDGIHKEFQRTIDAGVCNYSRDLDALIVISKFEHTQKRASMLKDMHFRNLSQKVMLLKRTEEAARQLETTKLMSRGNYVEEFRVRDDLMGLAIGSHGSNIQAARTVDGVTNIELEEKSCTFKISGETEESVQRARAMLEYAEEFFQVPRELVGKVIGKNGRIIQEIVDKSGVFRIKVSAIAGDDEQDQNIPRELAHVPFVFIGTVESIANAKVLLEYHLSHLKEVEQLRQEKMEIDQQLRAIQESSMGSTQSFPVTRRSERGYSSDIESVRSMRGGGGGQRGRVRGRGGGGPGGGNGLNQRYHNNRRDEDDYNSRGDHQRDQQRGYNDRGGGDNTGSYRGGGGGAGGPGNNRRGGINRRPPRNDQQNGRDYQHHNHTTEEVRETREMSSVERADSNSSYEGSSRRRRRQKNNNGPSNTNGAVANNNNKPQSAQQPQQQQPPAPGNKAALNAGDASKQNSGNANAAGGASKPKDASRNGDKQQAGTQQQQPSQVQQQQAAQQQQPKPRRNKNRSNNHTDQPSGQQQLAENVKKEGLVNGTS
UniProt Q9VUH8: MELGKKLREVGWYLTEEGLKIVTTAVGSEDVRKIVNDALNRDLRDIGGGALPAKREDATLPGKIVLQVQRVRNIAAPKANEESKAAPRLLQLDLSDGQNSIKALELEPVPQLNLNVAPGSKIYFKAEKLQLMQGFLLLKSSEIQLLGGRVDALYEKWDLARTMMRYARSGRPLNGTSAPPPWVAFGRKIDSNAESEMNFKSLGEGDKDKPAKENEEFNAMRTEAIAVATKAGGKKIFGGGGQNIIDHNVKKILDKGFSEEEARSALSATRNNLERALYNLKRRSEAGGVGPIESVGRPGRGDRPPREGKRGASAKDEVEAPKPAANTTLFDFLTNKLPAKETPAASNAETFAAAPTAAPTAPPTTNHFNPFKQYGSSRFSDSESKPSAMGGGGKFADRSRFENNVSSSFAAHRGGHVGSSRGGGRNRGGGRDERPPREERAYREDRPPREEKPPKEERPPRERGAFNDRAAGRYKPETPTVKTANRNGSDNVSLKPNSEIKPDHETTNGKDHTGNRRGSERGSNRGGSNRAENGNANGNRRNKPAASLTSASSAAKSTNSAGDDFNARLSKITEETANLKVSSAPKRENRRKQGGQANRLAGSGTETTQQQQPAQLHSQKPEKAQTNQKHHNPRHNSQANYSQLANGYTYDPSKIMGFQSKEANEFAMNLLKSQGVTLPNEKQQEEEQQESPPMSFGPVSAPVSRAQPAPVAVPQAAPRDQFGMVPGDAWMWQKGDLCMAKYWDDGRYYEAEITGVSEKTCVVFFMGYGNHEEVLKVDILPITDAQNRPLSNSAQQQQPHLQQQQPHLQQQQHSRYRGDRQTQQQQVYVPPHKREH
UniProt P19109: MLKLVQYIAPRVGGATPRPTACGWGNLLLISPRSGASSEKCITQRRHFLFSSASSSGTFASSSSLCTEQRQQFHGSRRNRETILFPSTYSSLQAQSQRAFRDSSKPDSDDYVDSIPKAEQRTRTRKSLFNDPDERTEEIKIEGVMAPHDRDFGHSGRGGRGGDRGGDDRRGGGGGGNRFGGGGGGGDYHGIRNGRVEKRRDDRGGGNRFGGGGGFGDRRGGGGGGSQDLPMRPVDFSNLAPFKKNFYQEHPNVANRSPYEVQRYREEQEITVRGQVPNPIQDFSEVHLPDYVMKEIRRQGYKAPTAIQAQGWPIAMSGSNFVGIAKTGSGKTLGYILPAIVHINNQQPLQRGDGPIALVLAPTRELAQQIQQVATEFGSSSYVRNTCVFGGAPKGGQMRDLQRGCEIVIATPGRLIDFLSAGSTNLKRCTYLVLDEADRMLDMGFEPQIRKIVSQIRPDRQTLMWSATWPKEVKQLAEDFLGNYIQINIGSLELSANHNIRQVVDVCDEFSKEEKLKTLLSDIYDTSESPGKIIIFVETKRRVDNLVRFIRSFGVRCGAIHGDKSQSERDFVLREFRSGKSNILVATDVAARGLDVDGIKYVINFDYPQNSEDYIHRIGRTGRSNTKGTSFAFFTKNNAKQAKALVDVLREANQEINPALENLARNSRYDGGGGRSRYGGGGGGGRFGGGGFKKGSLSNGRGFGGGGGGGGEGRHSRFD

T1: Flag-tagged Top3β (Drosophila) (UniProt O96651)
T1 sequence: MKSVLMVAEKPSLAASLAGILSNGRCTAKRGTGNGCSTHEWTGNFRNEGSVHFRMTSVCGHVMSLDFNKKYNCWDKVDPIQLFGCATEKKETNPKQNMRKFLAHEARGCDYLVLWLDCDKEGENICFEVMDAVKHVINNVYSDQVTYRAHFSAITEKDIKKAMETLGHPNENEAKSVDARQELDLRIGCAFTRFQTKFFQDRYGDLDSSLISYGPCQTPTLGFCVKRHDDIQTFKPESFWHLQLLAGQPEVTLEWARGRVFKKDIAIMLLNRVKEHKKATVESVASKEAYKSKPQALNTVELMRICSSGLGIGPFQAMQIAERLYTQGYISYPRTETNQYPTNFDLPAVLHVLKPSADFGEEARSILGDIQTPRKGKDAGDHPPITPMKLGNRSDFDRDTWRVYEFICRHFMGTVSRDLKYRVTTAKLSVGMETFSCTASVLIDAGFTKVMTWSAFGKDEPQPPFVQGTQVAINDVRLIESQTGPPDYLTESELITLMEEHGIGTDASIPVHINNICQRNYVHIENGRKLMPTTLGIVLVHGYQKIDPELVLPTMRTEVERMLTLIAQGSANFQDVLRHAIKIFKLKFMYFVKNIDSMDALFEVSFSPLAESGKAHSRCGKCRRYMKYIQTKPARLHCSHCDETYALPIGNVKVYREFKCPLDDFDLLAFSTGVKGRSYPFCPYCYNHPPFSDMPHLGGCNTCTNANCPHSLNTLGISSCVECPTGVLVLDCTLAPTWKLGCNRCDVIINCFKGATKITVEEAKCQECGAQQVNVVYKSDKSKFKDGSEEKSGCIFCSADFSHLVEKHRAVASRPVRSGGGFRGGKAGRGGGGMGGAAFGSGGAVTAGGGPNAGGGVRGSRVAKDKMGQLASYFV


What was measured:
[1] = molecular target: Drosophila FMRP (Drosophila (endogenous in S2 cells)) (UniProt Q9NFU0); assay: affinity purification with mass spectrometry; IP with an FMRP antibody from S2 cells, silver-stained SDS-PAGE and MS of the entire immunoprecipitate
[2] = molecular target: Drosophila TDRD3 (Tudor domain-containing 3) (Drosophila (endogenous in S2 cells)) (UniProt Q9VUH8); assay: affinity purification with mass spectrometry; IP with two antibodies against Drosophila TDRD3 (TDRD3-A and C) from S2 cell lysates, silver-stained SDS-PAGE and MS of the entire immunoprecipitate; also done with RNase A-treated extracts (fewer peptides of FMRP, p68 and AGO2)
[3] = molecular target: Flag-Top3β mutant deleted of its RGG-box (Drosophila) (UniProt O96651); assay: affinity purification with mass spectrometry; Flag antibody IP from transfected S2 cells, cell extracts treated with RNase A, MS
[4] = molecular target: T1, Flag-tagged Top3β (Drosophila); assay: as above
[5] = molecular target: Flag full-length TDRD3 (Drosophila); assay: affinity purification with mass spectrometry; Flag antibody IP from S2 cells transfected with Flag-Top3β, Flag-Top3β-ΔRGG or Flag-TDRD3, MS; mock-IP from S2 cells lacking the Flag proteins as control; extracts not treated with RNase
[6] = molecular target: Flag-Top3β mutant deleted of its RGG-box (Drosophila) (UniProt O96651); assay: as above
[7] = molecular target: T1, Flag-tagged Top3β (Drosophila); assay: as above

| Molecule | binding [1] | binding [2] | further results |
| --- | --- | --- | --- |
| Argonaute 2 (AGO2) (protein, UniProt Q9VUQ5 1-1214) MGKKDKNKKGGQDSAAAPQPQQQQKQQQQRQQQPQQLQQPQQLQQPQQLQQPQQQQQQQPHQQQQQSSRQQPSTSSGGSRASGFQQGGQQQKSQDAEGWTAQKKQGKQQVQGWTKQGQQGGHQQGRQGQDGGYQQRPPGQQQGGHQQGRQGQEGGYQQRPPGQQQGGHQQGRQGQEGGYQQRPSGQQQGGHQQGRQGQEGGYQQRPPGQQQGGHQQGRQGQEGGYQQRPSGQQQGGHQQGRQGQEGGYQQRPPGQQQGGHQQGRQGQEGGYQQRPPGQQQGGHEQGRQGQEGGYQQRPSGQQQGGHQQGRQGQEGGYQQRPSGQQQGGHQQGRQGQEGGYQQRPSGQQQGGHQQGRQGQEGGYQQRPPGQQPNQTQSQGQYQSRGPPQQQQAAPLPLPPQPAGSIKRGTIGKPGQVGINYLDLDLSKMPSVAYHYDVKIMPERPKKFYRQAFEQFRVDQLGGAVLAYDGKASCYSVDKLPLNSQNPEVTVTDRNGRTLRYTIEIKETGDSTIDLKSLTTYMNDRIFDKPMRAMQCVEVVLASPCHNKAIRVGRSFFKMSDPNNRHELDDGYEALVGLYQAFMLGDRPFLNVDISHKSFPISMPMIEYLERFSLKAKINNTTNLDYSRRFLEPFLRGINVVYTPPQSFQSAPRVYRVNGLSRAPASSETFEHDGKKVTIASYFHSRNYPLKFPQLHCLNVGSSIKSILLPIELCSIEEGQALNRKDGATQVANMIKYAATSTNVRKRKIMNLLQYFQHNLDPTISRFGIRIANDFIVVSTRVLSPPQVEYHSKRFTMVKNGSWRMDGMKFLEPKPKAHKCAVLYCDPRSGRKMNYTQLNDFGNLIISQGKAVNISLDSDVTYRPFTDDERSLDTIFADLKRSQHDLAIVIIPQFRISYDTIKQKAELQHGILTQCIKQFTVERKCNNQTIGNILLKINSKLNGINHKIKDDPRLPMMKNTMYIGADVTHPSPDQREIPSVVGVAASHDPYGASYNMQYRLQRGALEEIEDMFSITLEHLRVYKEYRNAYPDHIIYYRDGVSDGQFPKIKNEELRCIKQACDKVGCKPKICCVIVVKRHHTRFFPSGDVTTSNKFNNVDPGTVVDRTIVHPNEMQFFMVSHQAIQGTAKPTRYNVIENTGNLDIDLLQQLTYNLCHMFPRCNRSVSYPAPAYLAHLVAARGRVYLTGTNRFLDLKKEYAKRTIVPEFMKKNPMYFV | – | binds | binding [3]: binds; binding [4]: binds; binding [5]: binds; binding [6]: binds; binding [7]: binds |
| Rin (protein, UniProt Q9VFT4 1-690) MVMDATQSQQPSPQSVGREFVRQYYTLLNKAPNHLHRFYNHNSSYIHGESKLVVGQREIHNRIQQLNFNDCHAKISQVDAQATLGNGVVVQVTGELSNDGQPMRRFTQTFVLAAQSPKKYYVHNDIFRYQDLYIEDEQDGESRSENDEEHDVQVVGGTVDQAVQVAGDVVAQQPQQQQAPPQPQAQVVVPQQVAPVAAGGAAPQQIFYPLPAGAAAGRPVAVLPPAPQAAAVPLPAQFTVPPPQPIQNGVVSHEELQQQQVLVPPSVSPLVQQQQPTGTPVLPIVPVPSAGFQQSPLVAPQLIQQQQQQQPAQLPPQQQQQQQPIQQQQPLQQQQQPLAEPEEVEVAPRQQKPPTPVEDFKTIHEQQQQEKYEAAKQQQNEPKTYANLFKSTSSSPSGFVNAALQQQQQLQQQQQQQQSISSNTYNSSSATSGGGNGSQVSYSTTASSYNNSNGNSRLDNGGPLPQRNNSIRNNKGDFEQRRSSNTQQFGDNQQLFLGNIPHHASEDDLREIFSRFGNVLELRILSKAGNKVPPGMRSPLNYGFITYDDPEAVQKCLANCPLYFPENSPDGQKLNVEEKKPRVRNDMVPRQQIGGNNLNNNMGRLGGNNGPQSRPMGNNNGSGGGMMRNNAGGNNLRQGGGGGNGAPRLGGGGGFGQRQDNRTGGGNNQSNGPLRGAGNGQSGGGNYGRR | binds | – | – |
| Caprin (protein, UniProt Q9I7D3 1-961) MPSAANTATVTAAIATTVAASASNTNNNSVSKEKRSSIISLGGSVIPGTAVAAGAGVATTNGQSNSSAAATADGSQTDLASSNNNGNAAKSKANAVSAAAVVPEPYNPLKQLLVTIEHKIRNLEKRKTKLESYRAIQSSGKELSGDQASAVAKYDAVLANLEFARELAKHIQQQSKEAEKEQKKQARKDNLAKTIAETAKIREVLIIQNVLNCFNDDQVRSDFLNGENGAKKLENTELELLEKFFIETQTRRPETADDVSFIATAQKSAELFYSTINARPKSFGEVSFEKLRSLFQQIQDSGYLDKYYLVPLAENAVANSTDSGTGSGDGESGDLLNDGSGELDAELPSEPSARNSLEEGLDKLHLGVQAELDQHQSYQQQQERPSHLLEPQHQRAPSLEHQQNSMVQQVSTQVYQAAPQAGGTTTPVHVLYAPAPPAQQQPQQPPPHPHQLLSSPVNLQALQTGTAAPPAQQQQPHPTHFAPNVRAVEQNYFKQPPQHPQGPGIQAPQTPQQQQFMQHSRPLAEVLGTGRFHFLQDSELDNPEALAPPPPTNQGLVFEQQPQQPNHVEEPTQAILTLTFTNQSFPSQQPQPQQQGPQQQQQLFSPVLIHEQRQQPPQQQPQPMLIMPRLPTQQPQQPAPQGIGMQAGDVTSGFSYENAVVSYEQQIQQQLKQQQQQQQQQQQNLQQLDEPSSVNSSSSVGAGGDVENNEWHARNNDTNAAATAALTNVLKGETTQATPPAPPTKWSSEMNAMSSAASNGSSNTSHKQEWATPRDHSTGGGNSGYADNNESNNHWNNSQGDGRRNSGNYQRRGGDRDNRDRDQGGRGDERRNGGDRGNYRSRQYGNSSNTNGRNSGNSSGVYFRNNESGNGGGNNYYQNGGGGGGTYNKESRYESSGGGGGSYRGQRGGNQQRNVNGSYGGGRPMGDRGRGGAGNQGGGGGGYINRQNQSQRMPLGLENKN | binds | – | – |

Now from value to molecule, other results behind:

| binding [1] | binding [2] | Molecule | further results |
| --- | --- | --- | --- |
| binds | binds | p68 RNA helicase (encoded by Rm62) (from UniProt P19109 1-719) (enzyme) | – |
| – | binds | Vig (an RBP) (protein, UniProt Q9V426 1-490) MDSAGKNRYELLFMDDDVSDPLDNLVAPTAAAAAAAAGKKKQPSAAAAAATKTTANKVANSNNKANAGSNIGGPNAKKPNQAEKENKPNNALNKTDGKKFTPSADNKQQQFNNNASSNYKQQGAPRQGGGANRTREFGSGQGQGQGQGGQQQRSVNFRQQNGNAETREQRNNRRNVRENVGAPDGQQSRPYRGPGGGPGAGGDRPQRQNRNYDGQNRKREFDRQSGSDRTGVKSIDKRDGAGSHNWGSVKEAIDDVNKNESETNVTNAEGGAKADESGTEPQNEQATAEEEAKELTLDEWKAQQGQRIKPTFNIRKAGEGEDTTQWKKMVVLTSNKKKENDSEEELEYDPALYPQRVGRQQRVLDIQFNFNDGRRGGPGGFGGRGGRGGPRPGGFGGGPRSEGGNRDGGNREGGRDNREGGNRGPRDGQQHNNEGGGSSAQNQRPPIDRRGPGNNQNNNQNSGPGPNKRFERQQNTAPKVNDERQFPTLA | – |
